From article PMC3125180
Results are given in words; binding and its absence hold for the method and conditions named. Binding seen in cells or lysates may run through a third protein. These calls come from enrichment with a bait or labelling near it, and not all partners need be listed. For some of these results: A no says only that the protein was not detected with the bait. For some of these results: Tags and fused reporters may be left off the sequences shown.

Chains of the proteins cited; added tags and fusions are not shown. Lines headed by an entry give the natural chain unless they say otherwise; changes in a name come on top.
UniProt Q72DW8: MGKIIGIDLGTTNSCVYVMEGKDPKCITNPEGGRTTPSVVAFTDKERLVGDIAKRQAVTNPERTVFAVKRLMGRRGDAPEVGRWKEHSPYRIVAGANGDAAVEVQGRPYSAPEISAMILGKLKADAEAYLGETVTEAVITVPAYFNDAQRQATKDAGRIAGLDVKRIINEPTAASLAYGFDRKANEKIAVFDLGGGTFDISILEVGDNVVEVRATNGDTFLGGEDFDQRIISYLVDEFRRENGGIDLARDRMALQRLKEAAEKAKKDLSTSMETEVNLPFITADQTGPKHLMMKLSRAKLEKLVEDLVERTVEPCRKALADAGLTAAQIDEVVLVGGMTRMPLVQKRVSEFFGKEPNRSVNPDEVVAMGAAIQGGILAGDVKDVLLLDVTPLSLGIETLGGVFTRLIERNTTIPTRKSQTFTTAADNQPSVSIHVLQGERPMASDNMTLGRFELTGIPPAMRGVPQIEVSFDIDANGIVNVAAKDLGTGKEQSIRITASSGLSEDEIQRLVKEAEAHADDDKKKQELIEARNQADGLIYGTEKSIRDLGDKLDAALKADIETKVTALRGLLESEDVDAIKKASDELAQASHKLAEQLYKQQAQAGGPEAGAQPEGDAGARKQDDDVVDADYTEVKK
UniProt Q726B7: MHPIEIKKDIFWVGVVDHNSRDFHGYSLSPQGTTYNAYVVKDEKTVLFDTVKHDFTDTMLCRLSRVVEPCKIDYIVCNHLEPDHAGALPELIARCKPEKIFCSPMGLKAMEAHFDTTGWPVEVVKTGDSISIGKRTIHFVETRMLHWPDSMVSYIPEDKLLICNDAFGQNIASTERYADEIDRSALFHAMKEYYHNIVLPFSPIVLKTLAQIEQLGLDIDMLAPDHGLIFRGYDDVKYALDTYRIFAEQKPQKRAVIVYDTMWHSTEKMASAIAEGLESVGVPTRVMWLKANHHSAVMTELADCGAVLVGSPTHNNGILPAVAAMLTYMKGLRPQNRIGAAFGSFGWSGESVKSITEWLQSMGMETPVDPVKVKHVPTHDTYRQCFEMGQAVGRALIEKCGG
UniProt Q729Q8: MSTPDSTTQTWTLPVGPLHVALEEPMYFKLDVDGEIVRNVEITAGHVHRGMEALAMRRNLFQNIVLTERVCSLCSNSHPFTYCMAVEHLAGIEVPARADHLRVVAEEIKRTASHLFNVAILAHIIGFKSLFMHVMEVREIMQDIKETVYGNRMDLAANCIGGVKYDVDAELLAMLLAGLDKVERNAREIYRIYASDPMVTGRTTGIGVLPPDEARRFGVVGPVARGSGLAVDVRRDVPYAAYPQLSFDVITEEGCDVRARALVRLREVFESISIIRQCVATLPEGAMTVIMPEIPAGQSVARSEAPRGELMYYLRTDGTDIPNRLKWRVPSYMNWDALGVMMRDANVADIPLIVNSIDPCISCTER
UniProt Q72DT2: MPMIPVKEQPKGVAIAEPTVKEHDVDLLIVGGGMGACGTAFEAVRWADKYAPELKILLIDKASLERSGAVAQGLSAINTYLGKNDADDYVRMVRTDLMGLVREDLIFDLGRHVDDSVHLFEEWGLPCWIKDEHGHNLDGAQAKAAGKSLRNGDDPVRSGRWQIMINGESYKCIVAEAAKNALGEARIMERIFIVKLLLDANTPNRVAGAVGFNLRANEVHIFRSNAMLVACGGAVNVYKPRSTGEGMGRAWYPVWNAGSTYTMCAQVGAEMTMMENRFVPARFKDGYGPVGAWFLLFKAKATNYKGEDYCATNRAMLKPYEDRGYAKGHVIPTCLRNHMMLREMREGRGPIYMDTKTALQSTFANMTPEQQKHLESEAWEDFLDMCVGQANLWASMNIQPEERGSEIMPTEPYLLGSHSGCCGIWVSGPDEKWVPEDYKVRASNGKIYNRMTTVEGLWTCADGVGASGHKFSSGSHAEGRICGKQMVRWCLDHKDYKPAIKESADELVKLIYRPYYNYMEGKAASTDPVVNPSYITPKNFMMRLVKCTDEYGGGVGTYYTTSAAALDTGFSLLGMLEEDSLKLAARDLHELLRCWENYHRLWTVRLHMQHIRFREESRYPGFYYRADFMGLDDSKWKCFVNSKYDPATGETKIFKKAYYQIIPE
UniProt Q725U5: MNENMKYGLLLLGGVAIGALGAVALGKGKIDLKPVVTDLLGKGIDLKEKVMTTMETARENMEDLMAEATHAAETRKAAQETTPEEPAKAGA
UniProt Q72DT3: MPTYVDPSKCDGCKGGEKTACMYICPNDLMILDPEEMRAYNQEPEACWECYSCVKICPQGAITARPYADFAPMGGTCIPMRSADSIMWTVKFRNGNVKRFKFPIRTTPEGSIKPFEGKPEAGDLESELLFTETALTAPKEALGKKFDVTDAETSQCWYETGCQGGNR
UniProt Q72C29: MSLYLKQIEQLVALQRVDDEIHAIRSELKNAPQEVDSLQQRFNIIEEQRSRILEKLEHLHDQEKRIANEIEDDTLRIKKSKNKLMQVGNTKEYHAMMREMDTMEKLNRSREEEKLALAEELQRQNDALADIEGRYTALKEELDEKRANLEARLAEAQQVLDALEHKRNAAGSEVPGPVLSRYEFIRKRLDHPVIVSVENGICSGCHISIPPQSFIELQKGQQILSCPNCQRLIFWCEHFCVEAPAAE
UniProt Q72A94: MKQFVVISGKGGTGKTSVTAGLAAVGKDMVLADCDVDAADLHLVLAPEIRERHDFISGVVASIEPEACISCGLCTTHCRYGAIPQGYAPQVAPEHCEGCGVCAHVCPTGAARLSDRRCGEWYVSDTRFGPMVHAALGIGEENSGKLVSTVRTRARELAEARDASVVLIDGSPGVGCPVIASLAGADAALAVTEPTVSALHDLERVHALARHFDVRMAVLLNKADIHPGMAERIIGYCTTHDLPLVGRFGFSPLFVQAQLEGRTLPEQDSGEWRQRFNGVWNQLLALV
UniProt Q72DS8: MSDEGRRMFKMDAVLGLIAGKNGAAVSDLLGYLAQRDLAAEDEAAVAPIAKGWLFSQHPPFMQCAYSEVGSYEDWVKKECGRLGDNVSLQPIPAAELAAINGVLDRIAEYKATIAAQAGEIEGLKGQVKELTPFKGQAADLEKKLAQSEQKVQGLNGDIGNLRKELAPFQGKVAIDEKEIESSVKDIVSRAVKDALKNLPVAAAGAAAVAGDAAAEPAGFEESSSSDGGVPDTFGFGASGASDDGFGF
UniProt Q729Q9: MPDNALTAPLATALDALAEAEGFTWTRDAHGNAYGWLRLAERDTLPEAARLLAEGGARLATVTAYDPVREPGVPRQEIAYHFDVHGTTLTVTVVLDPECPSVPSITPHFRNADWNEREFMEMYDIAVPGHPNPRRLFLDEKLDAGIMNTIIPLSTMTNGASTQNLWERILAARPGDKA
UniProt Q72AW5: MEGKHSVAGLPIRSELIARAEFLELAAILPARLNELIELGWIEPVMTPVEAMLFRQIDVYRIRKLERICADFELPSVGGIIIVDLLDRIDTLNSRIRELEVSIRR

What was measured:
Assay in all cases: affinity purification with mass spectrometry; chromosomally C-terminally Strep-tag II-tagged bait in D. vulgaris JW801 grown anaerobically in LS4D to late log phase; soluble lysate (60~70 mg protein) on a 1-ml Strep-Tactin Sepharose column, gravity flow, 4°C, Buffer W (100 mM Tris-HCl, 150 mM NaCl, 1 mM EDTA, pH 8), eluted with desthiobiotin; tryptic digest, LC-MS/MS; three biological replicates; untagged JW801 as no-bait control
[1] = target: Strep-tagged DnaK (DVU0811) (Desulfovibrio vulgaris Hildenborough (strain JW801)) (UniProt Q72DW8)
[2] = target: T1, Strep-tagged Rubredoxin, Rub (DVU3184) (Desulfovibrio vulgaris Hildenborough (strain JW801)) (UniProt P00269)
T1 sequence: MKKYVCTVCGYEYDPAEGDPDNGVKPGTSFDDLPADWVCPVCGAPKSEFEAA

[3] = target: Strep-tagged Rubredoxin-oxygen oxidoreductase, Roo (DVU3185) (Desulfovibrio vulgaris Hildenborough (strain JW801)) (UniProt Q726B7)
[4] = target: Strep-tagged carbon monoxide-induced hydrogenase CooH (DVU2291) (Desulfovibrio vulgaris Hildenborough (strain JW801)) (UniProt Q729Q8)
[5] = target: T2, Strep-tagged Polyribonucleotide nucleotidyltransferase (Pnp, DVU0503) (Desulfovibrio vulgaris Hildenborough (strain JW801)) (UniProt Q72ER6)
T2 sequence: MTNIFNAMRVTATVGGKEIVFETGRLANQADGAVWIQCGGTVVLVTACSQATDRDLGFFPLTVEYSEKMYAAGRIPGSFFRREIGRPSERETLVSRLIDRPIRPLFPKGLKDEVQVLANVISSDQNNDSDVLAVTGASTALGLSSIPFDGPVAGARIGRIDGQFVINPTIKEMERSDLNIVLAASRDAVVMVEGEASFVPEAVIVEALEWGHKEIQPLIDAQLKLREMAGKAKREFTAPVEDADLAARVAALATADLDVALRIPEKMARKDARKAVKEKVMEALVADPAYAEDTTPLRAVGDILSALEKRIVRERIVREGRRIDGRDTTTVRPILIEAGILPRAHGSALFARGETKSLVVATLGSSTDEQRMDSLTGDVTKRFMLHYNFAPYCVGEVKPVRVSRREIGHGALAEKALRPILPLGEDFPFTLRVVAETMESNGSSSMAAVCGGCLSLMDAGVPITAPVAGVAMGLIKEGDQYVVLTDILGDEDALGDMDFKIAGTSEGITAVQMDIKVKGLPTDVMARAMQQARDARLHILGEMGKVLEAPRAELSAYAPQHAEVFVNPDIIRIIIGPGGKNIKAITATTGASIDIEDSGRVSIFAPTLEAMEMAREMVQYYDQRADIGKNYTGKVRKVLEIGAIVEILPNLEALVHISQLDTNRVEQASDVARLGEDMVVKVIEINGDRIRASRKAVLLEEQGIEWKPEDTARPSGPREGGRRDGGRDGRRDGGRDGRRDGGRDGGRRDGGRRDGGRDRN

[6] = target: Strep-tagged ApsA (DVU0847) (Desulfovibrio vulgaris Hildenborough (strain JW801)) (UniProt Q72DT2)

binding [1] | binding [4] | binding [5] | Substance | further results
binds | – | – | DVU3330 (from UniProt Q725U5) | –
– | binds | – | ApsA (DVU0847) (from UniProt Q72DT2) (enzyme) | binding [3]: binds
– | binds | – | ApsB (DVU0846) (from UniProt Q72DT3) (enzyme) | binding [6]: binds; binding [3]: binds
– | – | binds | DVU1455 (from UniProt Q72C29) | –
– | – | no binding | Rne (DVU3055) (enzyme) | –

Further lines, the substance ahead of its results:

Substance | binding [1] | binding [4] | binding [5] | further results
DVU2103 (from UniProt Q72A94) | binds | – | – | –
DVU0851 (from UniProt Q72DS8) | – | – | – | binding [2]: binds
CooU (DVU2290) (from UniProt Q729Q9) | – | binds | – | –
RhlE (DVU1982) (enzyme) | – | – | no binding | –
DafA (DVU1875) (from UniProt Q72AW5) | binds | – | – | –
